Assay results from doi:10.1101/2023.01.13.523596.
These are yes or no findings as the source states them, for the method shown. Binding seen in cells or lysates may run through a third protein. Some results given as binding are weak or reduced against the parent protein; the word gives no strength.

Sequences of proteins named here, by UniProt entry; tags and fusion partners are left off.
UniProt P30051: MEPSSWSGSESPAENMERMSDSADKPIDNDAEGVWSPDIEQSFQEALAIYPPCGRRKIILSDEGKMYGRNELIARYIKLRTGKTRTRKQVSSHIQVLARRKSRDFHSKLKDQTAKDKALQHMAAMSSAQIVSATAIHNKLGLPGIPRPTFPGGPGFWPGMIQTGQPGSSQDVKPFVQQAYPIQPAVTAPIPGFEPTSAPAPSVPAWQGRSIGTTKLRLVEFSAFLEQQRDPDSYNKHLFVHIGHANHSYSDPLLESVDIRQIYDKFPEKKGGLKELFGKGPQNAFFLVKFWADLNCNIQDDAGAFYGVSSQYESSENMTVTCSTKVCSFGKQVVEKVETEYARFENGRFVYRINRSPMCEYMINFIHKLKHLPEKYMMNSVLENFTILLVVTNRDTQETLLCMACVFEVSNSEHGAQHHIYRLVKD
UniProt P46938: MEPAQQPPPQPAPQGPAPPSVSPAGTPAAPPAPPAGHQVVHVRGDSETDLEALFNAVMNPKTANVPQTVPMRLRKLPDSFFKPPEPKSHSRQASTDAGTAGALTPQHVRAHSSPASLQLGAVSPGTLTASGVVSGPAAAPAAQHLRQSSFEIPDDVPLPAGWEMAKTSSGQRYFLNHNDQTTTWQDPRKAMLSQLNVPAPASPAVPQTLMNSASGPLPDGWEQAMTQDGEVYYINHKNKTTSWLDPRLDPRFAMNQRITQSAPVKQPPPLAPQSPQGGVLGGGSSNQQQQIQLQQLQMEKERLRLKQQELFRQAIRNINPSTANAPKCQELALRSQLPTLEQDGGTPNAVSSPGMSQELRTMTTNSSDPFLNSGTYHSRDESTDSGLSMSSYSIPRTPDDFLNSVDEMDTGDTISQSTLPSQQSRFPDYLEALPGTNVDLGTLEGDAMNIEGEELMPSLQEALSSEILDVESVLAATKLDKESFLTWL

Biological target: TEAD1 (mouse (endogenous in aorta and inferior vena cava)) (UniProt P30051)
Experiment: proximity ligation

binding: binds
Substance: Yes-associated protein (YAP) (from UniProt P46938 1-488)
